The list is a part of this screen's results and no random one: it gathers tests that were run many times, whatever their T/C, doses with no T/C, and many T/C values between a quarter and a half above the control. Other doses and runs of a compound stand elsewhere. T/C gives the treated animals as a percentage of the vehicle group. Some entries give survivors of the animals treated and no T/C: the source files T/C as zero there, which appears to mark a toxic dose or a test without result, not a measured value. Some survivor counts are full or nearly so, which does not show that the dose was tolerated: survival well below the control is almost never listed, so the zero probably covers shortened survival too. Survivors were counted at the toxicity check, usually on the fifth day, unless a day is given; later deaths do not show. Schedules are NCI's codes, taken here to give the interval after Q, in days (D) or hours (H), and the number of doses after X. For survival time, the PubChem record calls one and a half times the control and up active, and a quarter to a half above the control has no call in these data; cut-offs in other NCI protocols can differ. Some entries hold several experiments; their values stand side by side, smallest first. Some T/C values are followed by the survivors on the day toxicity was checked, most often the fifth; where none is given, no animal had died by that day.
Tested on: P388 leukemia ip, CD2F1 mice, survival T/C
Assay: NCI In Vivo Anticancer Drug Screen. Data for tumor model P388 Leukemia (intraperitoneal) in CD2F1 (CDF1) mice
Details: T/C endpoint: median survival time, higher T/C = longer survival
[1] = dose: 25.0 mg/kg/injection, schedule: Q01DX009 (ip), vehicle: saline
[2] = dose: 50.0 mg/kg/injection, schedule: Q01DX009 (ip), vehicle: saline
[3] = dose: 100.0 mg/kg/injection, schedule: Q01DX009 (ip), vehicle: saline
[4] = dose: 200.0 mg/kg/injection, schedule: Q01DX009 (ip), vehicle: saline
[5] = dose: 120.0 mg/kg/injection, schedule: Q01DX005 (ip), vehicle: saline with Tween-80
[6] = dose: 240.0 mg/kg/injection, schedule: Q01DX005 (ip), vehicle: saline with Tween-80
[7] = dose: 200.0 mg/kg/injection, schedule: Q01DX005 (ip), vehicle: saline with Tween-80
[8] = dose: 100.0 mg/kg/injection, schedule: Q01DX001 (ip), vehicle: Klucel (hydroxypropylcellulose) (HPC)
[9] = dose: 200.0 mg/kg/injection, schedule: Q04DX003 (ip), vehicle: saline
[10] = dose: 400.0 mg/kg/injection, schedule: Q01DX001 (ip), vehicle: saline with Tween-80
[11] = dose: 5.0 mg/kg/injection, schedule: Q01DX005 (ip), vehicle: Klucel (hydroxypropylcellulose) (HPC)

SMILES: O=c1c2ccccc2oc2nc3ccccc3nc12
- survivor count (dose: 240.0 mg/kg/injection, schedule: Q01DX005 (ip), vehicle: Klucel (hydroxypropylcellulose) (HPC)): 1 of 6

SMILES: CN=C(N)N/N=C(\c1ccc(Cl)cc1)c1ccc([N+](=O)[O-])cc1Cl
- survivor count (dose: 100.0 mg/kg/injection, schedule: Q04DX002 (ip), vehicle: saline with Tween-80): 1 of 6

SMILES: Nc1ccn(C2OC(CCl)C(O)C2O)c(=O)n1 (centres undefined)
- T/C (dose: 25.0 mg/kg/injection, schedule: Q01DX009 (ip), vehicle: Klucel (hydroxypropylcellulose) (HPC)): 131 % of control
- T/C [1]: 126 % of control
- T/C (dose: 50.0 mg/kg/injection, schedule: Q01DX009 (ip), vehicle: Klucel (hydroxypropylcellulose) (HPC)): 146 % of control
- T/C [2]: 137 % of control

SMILES: CCCCN(CCCC)CC(O)c1c2cccc(Cl)c2cc2c(Cl)cccc12 (centres undefined)
- survivor count (dose: 400.0 mg/kg/injection, schedule: Q01DX009 (ip), vehicle: saline with Tween-80): 6 of 6

SMILES: COC(=O)C1(F)C(=O)NC(=O)NC1OC (centres undefined)
- T/C (dose: 120.0 mg/kg/injection, schedule: Q04DX002 (ip), vehicle: Klucel (hydroxypropylcellulose) (HPC)): 128 and 137 % of control
- T/C (dose: 240.0 mg/kg/injection, schedule: Q04DX002 (ip), vehicle: Klucel (hydroxypropylcellulose) (HPC)): 137 % of control

SMILES: O=S(=O)(c1cnccc1N1CCN(CCCl)CC1)N1CCCCC1
- T/C [2]: 97, 105, 111, 120 % of control
- survivor count [3]: 5 of 6
- survivor count [4]: 0 of 6

SMILES: C[C@H](CCC(=O)O)[C@H]1CC[C@H]2[C@@H]3[C@H](O)C[C@@H]4C[C@H](O)CC[C@]4(C)[C@H]3C[C@H](O)[C@]12C (tested in a mixture with another compound)
- T/C (dose: 150.0 mg/kg/injection, schedule: Q01DX009 (ip), vehicle: saline sonified): 131 % of control

SMILES: COc1ccc(-c2cn3c([nH]c(=O)c4ccccc43)c2C#N)cc1
- survivor count (dose: 60.0 mg/kg/injection, schedule: Q01DX005 (ip), vehicle: saline with Tween-80): 6 of 6
- survivor count [5]: 6 of 6
- survivor count [6]: 6 of 6

SMILES: COc1cc([N+](=O)[O-])c(OC)c2c(=O)[nH]c(=O)[nH]c12
- survivor count (dose: 25.0 mg/kg/injection, schedule: Q01DX005 (ip), vehicle: Klucel (hydroxypropylcellulose) (HPC)): 6 of 6
- survivor count (dose: 50.0 mg/kg/injection, schedule: Q01DX005 (ip), vehicle: Klucel (hydroxypropylcellulose) (HPC)): 6 of 6

SMILES: CCCCCCCCCCCCCCC(C(=O)[O-])[n+]1ccccc1 (centres undefined)
- survivor count (dose: 60.0 mg/kg/injection, schedule: Q01DX005 (ip), vehicle: saline): 5 of 6
- survivor count (dose: 120.0 mg/kg/injection, schedule: Q01DX005 (ip), vehicle: saline): 2 of 6
- survivor count (dose: 240.0 mg/kg/injection, schedule: Q01DX005 (ip), vehicle: saline): 0 of 6

SMILES: Cc1cc(C)c(CSc2cc(N)nc(N)c2N)c(C)c1
- survivor count (dose: 200.0 mg/kg/injection, schedule: Q01DX009 (ip), vehicle: Klucel (hydroxypropylcellulose) (HPC)): 0 of 6
- survivor count (dose: 400.0 mg/kg/injection, schedule: Q01DX009 (ip), vehicle: Klucel (hydroxypropylcellulose) (HPC)): 0 of 6

SMILES: NC(=O)CCBr
- survivor count (dose: 200.0 mg/kg/injection, schedule: Q01DX009 (ip), vehicle: saline with Tween-80): 6 of 6

SMILES: C=CCn1c2c(c3ccccc3c1=O)C(=O)c1ccccc1-2
- survivor count (dose: 50.0 mg/kg/injection, schedule: Q01DX005 (ip), vehicle: saline with Tween-80): 5 of 5
- survivor count [7]: 5 of 5

SMILES: O=C1CCCCCCCNC(=O)CCCCCCC(=O)NCCCCCCCC(=O)NCCCCCCCCN1
- survivor count [8]: 6 of 6

SMILES: O=C(c1ccccc1)C1C(c2ccccc2)C2(CCCCC2=O)C(c2ccccc2)CC1(O)c1ccccc1 (centres undefined)
- survivor count (dose: 6.25 mg/kg/injection, schedule: Q01DX001 (ip), vehicle: Klucel (hydroxypropylcellulose) (HPC)): 6 of 6
- survivor count (dose: 12.5 mg/kg/injection, schedule: Q01DX001 (ip), vehicle: Klucel (hydroxypropylcellulose) (HPC)): 6 of 6

SMILES: CCCCNP(=O)(N1CC1CC)N1CC1CC (centres undefined)
- T/C (dose: 132.0 mg/kg/injection, schedule: Q04DX003 (ip), vehicle: saline): 131 % of control
- T/C [9]: 136 % of control

SMILES: CCCCN(CCCC)CCCNc1c2c(nc3ccc(Cl)cc13)CCCC2
- survivor count (dose: 100.0 mg/kg/injection, schedule: Q01DX005 (ip), vehicle: saline with Tween-80): 1 of 6
- survivor count [7]: 0 of 6

SMILES: O=C1CC2C(CC3OC(=O)C4C3C23COC4(O)C(O)C3)c2occc21 (centres undefined)
- survivor count [10]: 3 of 6

SMILES: COc1cc(NCCC2CCCCN2)c2ncccc2c1 (centres undefined)
- survivor count (dose: 25.0 mg/kg/injection, schedule: Q01DX005 (ip), vehicle: saline): 0 of 5
- survivor count (dose: 50.0 mg/kg/injection, schedule: Q01DX005 (ip), vehicle: saline): 0 of 5
- survivor count (dose: 100.0 mg/kg/injection, schedule: Q01DX005 (ip), vehicle: saline): 0 of 5
- survivor count (dose: 200.0 mg/kg/injection, schedule: Q01DX005 (ip), vehicle: saline): 0 of 5

SMILES: [Cl][Pd][Cl].[NH-]C(C(=O)OCc1ccccc1)c1ccccc1.[NH-]C(C(=O)OCc1ccccc1)c1ccccc1 (centres undefined)
- survivor count [9]: 6 of 6
- survivor count (dose: 400.0 mg/kg/injection, schedule: Q04DX003 (ip), vehicle: saline): 6 of 6

SMILES: COC1=C(C)C(=O)C2=C(C1=O)C1C3CC4=C(C(=O)C(OC)=C(C)C4=O)C(CNC(=O)C(C)O)N3C(C#N)C(C2)N1C (centres undefined)
- T/C (dose: 0.63 mg/kg/injection, schedule: Q01DX005 (ip), vehicle: Klucel (hydroxypropylcellulose) (HPC)): 127 and 137 % of control
- T/C (dose: 1.25 mg/kg/injection, schedule: Q01DX005 (ip), vehicle: Klucel (hydroxypropylcellulose) (HPC)): 140 [5 of 6 alive] and 144 % of control
- T/C [11]: 142 % of control [5 of 6 alive]
- survivor count [11]: 2 of 6

SMILES: CCCCn1cnc2c(cnn2C)c1=N
- survivor count (dose: 400.0 mg/kg/injection, schedule: Q04DX002 (ip), vehicle: saline): 0 of 6

SMILES: C[N+](C)(C)CCC(=O)c1cccc([N+](=O)[O-])c1
- survivor count [3]: 0 of 6
- survivor count [4]: 0 of 6

SMILES: Cc1nc2ccc(N)cc2oc1=O
- survivor count [5]: 1 of 6
- survivor count [6]: 0 of 6

SMILES: C/C(=N\N=c1\sc2ccccc2n1CC(=O)O)c1ccc([N+](=O)[O-])cc1
- survivor count [10]: 0 of 6

SMILES: c1ccc(-c2ccc[n+](CCC[n+]3cccc(-c4ccccn4)c3)c2)nc1
- survivor count [7]: 0 of 6

SMILES: CC(C)=CCC/C(C)=C/CC1=C(O)c2ccccc2C(=O)C1=O
- survivor count (dose: 3.12 mg/kg/injection, schedule: Q01DX009 (ip), vehicle: saline): 6 of 6
- survivor count (dose: 6.25 mg/kg/injection, schedule: Q01DX009 (ip), vehicle: saline): 6 of 6
- survivor count [1]: 6 of 6

SMILES: [CH3][Sn]1([CH3])[O]C(=O)C(=O)[O]1
- survivor count [8]: 0 of 6
- survivor count (dose: 200.0 mg/kg/injection, schedule: Q01DX001 (ip), vehicle: Klucel (hydroxypropylcellulose) (HPC)): 0 of 6
- survivor count (dose: 400.0 mg/kg/injection, schedule: Q01DX001 (ip), vehicle: Klucel (hydroxypropylcellulose) (HPC)): 0 of 6

SMILES: COC(=O)c1cc(-c2cccc3ccccc23)[nH]c(=O)c1C#N
- survivor count [6]: 3 of 6

SMILES: CCCOC(=O)NC(C)C(=O)NC(CCC(=O)NC(CCCC(N)C(=O)O)C(=O)NC(C)C(=O)O)C(=O)O (centres undefined)
- survivor count (dose: 100.0 mg/kg/injection, schedule: Q01DX005 (ip), vehicle: Klucel (hydroxypropylcellulose) (HPC)): 1 of 5
- survivor count (dose: 200.0 mg/kg/injection, schedule: Q01DX005 (ip), vehicle: Klucel (hydroxypropylcellulose) (HPC)): 0 of 5

SMILES: OCCc1nccnn1
- survivor count (dose: 100.0 mg/kg/injection, schedule: Q04DX003 (ip), vehicle: saline): 6 of 6

SMILES: C=C(C)C1CC2=C(C(=O)OC)C=C(O2)C(C(=C)C)C2C=C(C(=O)O2)C2OC12 (centres undefined)
- survivor count (dose: 200.0 mg/kg/injection, schedule: Q01DX005 (ip), vehicle: saline + alcohol): 0 of 5

SMILES: CCN(CC)CCNc1ccc(C)c2oc3ccc(O)cc3c(=O)c12
- survivor count (dose: 100.0 mg/kg/injection, schedule: Q01DX005 (ip), vehicle: distilled water + Tween-80): 2 of 5
- survivor count (dose: 200.0 mg/kg/injection, schedule: Q01DX005 (ip), vehicle: distilled water + Tween-80): 0 of 5
